Data: article doi:10.1101/2020.05.14.095364 (bioRxiv, 2020)
These are yes or no findings as the source states them, for the method shown. Binding seen in cells or lysates may run through a third protein. Some binding calls cover weakened binding; strength is not graded here. Sequences can lack the tags named with a protein.

T1: GST-CGN(1-70) (canine, UniProt A7YH32 1-70)
T1 sequence (looked up): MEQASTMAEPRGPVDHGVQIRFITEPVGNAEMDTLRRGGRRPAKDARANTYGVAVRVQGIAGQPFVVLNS

T2: GST-tagged hCGN (1-121aa) (human) (UniProt Q9P2M7)
T2 sequence: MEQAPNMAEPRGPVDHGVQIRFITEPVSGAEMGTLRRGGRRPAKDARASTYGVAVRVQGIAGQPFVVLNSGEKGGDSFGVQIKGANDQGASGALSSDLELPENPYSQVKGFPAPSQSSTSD

T3: GST-tagged hCGN (1-353aa) (human) (UniProt Q9P2M7)
T3 sequence: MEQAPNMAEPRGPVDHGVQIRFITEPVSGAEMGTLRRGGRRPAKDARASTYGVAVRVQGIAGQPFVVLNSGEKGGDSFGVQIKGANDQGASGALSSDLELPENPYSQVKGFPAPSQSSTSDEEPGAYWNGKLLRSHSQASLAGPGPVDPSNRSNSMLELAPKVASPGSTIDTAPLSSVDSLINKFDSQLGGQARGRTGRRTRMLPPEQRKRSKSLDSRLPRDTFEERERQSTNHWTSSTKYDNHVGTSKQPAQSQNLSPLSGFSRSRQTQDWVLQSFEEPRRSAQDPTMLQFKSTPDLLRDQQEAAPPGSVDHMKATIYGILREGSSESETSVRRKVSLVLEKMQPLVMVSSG

T4: GST-tagged hCGNL1 (1-119aa) (human) (UniProt Q0VF96)
T4 sequence: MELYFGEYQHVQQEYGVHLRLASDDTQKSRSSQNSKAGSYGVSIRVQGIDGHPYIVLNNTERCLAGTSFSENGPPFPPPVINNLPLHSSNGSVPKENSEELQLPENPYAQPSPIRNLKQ


Columns and labels:
Experiment in all cases: pull-down
GST-CGN(1-70) = molecular target: T1, GST-CGN(1-70)
[1] = molecular target: T2, GST-tagged hCGN (1-121aa) (human)
[2] = molecular target: T3, GST-tagged hCGN (1-353aa) (human)
[3] = molecular target: T4, GST-tagged hCGNL1 (1-119aa) (human)

Molecule	binding (GST-CGN(1-70))	binding [1]	binding [2]	binding [3]
GFP-tagged hZO-1 (residues 1150-1619) (from UniProt Q07157 1150-1619) (domain or fragment)	no binding			
GFP-tagged hZO-1 (residues 888-1748) (from UniProt Q07157 888-1748) (domain or fragment)	binds			
GFP-tagged hZO-1 (residues 1619-1748), isolated ZU5 fragment (domain or fragment, human, UniProt Q07157 1619-1748, looked up) SAVEEDEDEDGHTVVATARGIFNSNGGVLSSIETGVSIIIPQGAIPEGVEQEIYFKVCRDNSILPPLDKEKGETLLSPLVMCGPHGLKFLKPVELRLPHCDPKTWQNKCLPGDPNYLVGANCVSVLIDHF	binds	binds	binds	binds

Now from value to molecule:

binding (GST-CGN(1-70))	binding [1]	binding [2]	binding [3]	Molecule
binds				GFP-tagged hZO-1 (residues 1150-1748) (from UniProt Q07157 1150-1748) (domain or fragment)
no binding				GFP-tagged hZO-1 (residues 888-1619) (from UniProt Q07157 888-1619) (domain or fragment)
